In PubChem BioAssay AID504467 (National Center for Advancing Translational Sciences (NCATS), 2011):
In all, about 330,000 compounds went through this assay and about 7,700 (2.3%) were called active. The shares of active, inactive and inconclusive entries below differ from those in the screen. Calls follow the shape of the dose curve; as a rule, active = well fitted inhibition curve with a large enough effect; inconclusive = small, poorly fitted or top-dose-only effect, or effect the other way; inactive = flat fitted curve, though single readings scatter. A potency beside an inconclusive call is a rough fit, not a confirmed value.

Test: qHTS screen for small molecules that inhibit ELG1-dependent DNA repair in human embryonic kidney (HEK293T) cells expressing luciferase-tagged ELG1; also: nearly all actives have a fitted effect of over 55% in size
Conditions: HEK293T ELG1-luciferase reporter, luminescence, 16 h, DNA damage induced by 5-fluorouridine; series mostly up to 46.1 µM
How it was run: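 5-Fluorouridine DNA damage + compound/DMSO, 2,000 cells/well, 16 h, 37 °C/5% CO2. ONE-Glo, 30 min RT, luminescence. Readout = decrease in reporter signal.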
Potency is read from the fitted curve at half-maximal effect.

**Q.** For `COc1cc(/C=C2\SC(=S)N(CCC(=O)Nc3ccccc3)C2=O)cc(OC)c1OC`, which Potency is on record?
**A.** inconclusive: 6.51 µM [inhibitor, full curve]

**Q.** Which Potency does the source give for `CC(C)n1c(N2CCCC2)nc2c1c(=O)[nH]c(=O)n2C` here?
**A.** inconclusive: 23.1 µM [activator, single point]

**Q.** With `COc1ccc(NC(=O)C(=O)NCC2CCCN2S(=O)(=O)c2ccc(C)cc2)cc1` (stereo not drawn) as the compound, how does the Potency read?
**A.** inactive

**Q.** For `Cc1cccc(N(Cc2ccccc2)C(=O)CN2C(=O)NC3(CCCCC3C)C2=O)c1` (stereo not drawn), which Potency is on record?
**A.** inactive

**Q.** With `CCCCNC(=O)Nc1ccon1` as the compound, how does the Potency read?
**A.** inactive

**Q.** For `CC(=O)Nc1ccc(Nc2ccccc2)cc1`, which Potency is on record?
**A.** inconclusive: 32.6 µM [activator, single point]

**Q.** Which Potency does the source give for `COCCC1CCCCN1C(=O)c1cc(COc2cccc(C(C)=O)c2)on1` (stereo not drawn) here?
**A.** inconclusive: 23.1 µM [activator, partial curve]

**Q.** With `CCOc1c2ccc(C(=O)NCCCCc3ccccc3)cc2nn1CC` as the compound, how does the Potency read?
**A.** inconclusive: 0.259 µM [inhibitor, single point]

**Q.** With `Cn1cccc1/C=C1\CCc2ccccc2C1=O` as the compound, how does the Potency read?
**A.** inconclusive: 2.91 µM [activator, partial curve]

**Q.** Which Potency does the source give for `N#Cc1c(N)nc(Sc2ccc(Cl)cc2)c(C#N)c1-c1ccccc1Cl` here?
**A.** inconclusive: 13 µM [inhibitor, partial curve]

**Q.** For `O=C(Nc1ccc(N2CCN(C(=O)c3ccc(Cl)cc3)CC2)cc1)c1ccc(Br)o1`, which Potency is on record?
**A.** active: 20.6 µM

**Q.** For `Cc1nc(NC(=O)/C=C/c2ccc(F)cc2)sc1C(=O)N(C)C`, which Potency is on record?
**A.** inconclusive: 29.1 µM [activator, partial curve, poor fit]

**Q.** With `CCOC(=O)N1CCN(C(=O)c2ccc(S(=O)(=O)Nc3ccc(C)cc3)cc2)CC1` as the compound, how does the Potency read?
**A.** inconclusive: 5.17 µM [inhibitor, full curve]

**Q.** With `COc1ccccc1N1CCN(C(=O)COc2ccc(S(=O)(=O)NC(C)C)cc2)CC1` as the compound, how does the Potency read?
**A.** inconclusive: 20.6 µM [inhibitor, single point]

**Q.** For `C=C(C)C1CC=C(C)/C(=N/NC(=O)COc2cccc(C)c2)C1` (stereo not drawn), which Potency is on record?
**A.** inactive

**Q.** With `Cc1ccc(-c2nnc(-c3ccc(NC(=O)c4cccs4)cc3)o2)cc1` as the compound, how does the Potency read?
**A.** inconclusive: 25.9 µM [activator, single point]

**Q.** With `Oc1ccccc1N1CCN(c2ncnc3sc(-c4ccccc4)cc23)CC1` as the compound, how does the Potency read?
**A.** inconclusive: 23.1 µM [inhibitor, single point]

**Q.** Which Potency does the source give for `CCN(CC)C(=O)c1c2c(nc3ccccc13)-c1ccccc1CC2` here?
**A.** inconclusive: 0.116 µM [activator, partial curve]

**Q.** Which Potency does the source give for `CCOc1nc(NCCc2ccc(OC)c(OC)c2)nc(N2CCN(c3ccc(OC)cc3)CC2)n1` here?
**A.** inconclusive: 2.91 µM [inhibitor, full curve]

**Q.** Which Potency does the source give for `CCOC(=O)c1sc(=N)n(-c2ccc(OC)cc2)c1C` here?
**A.** inconclusive: 11.6 µM [activator, partial curve]

**Q.** With `Cc1ccc2c(C)c(C(=O)N(C)Cc3nccn3C)oc2c1C` as the compound, how does the Potency read?
**A.** inactive

**Q.** For `CN1CCN(c2ccc(NC(=O)Cc3ccccc3)cc2)CC1`, which Potency is on record?
**A.** inconclusive: 18.4 µM [activator, partial curve]

**Q.** Which Potency does the source give for `CC(=O)c1ccc(N2CCN(C(=S)Nc3ccc(Oc4ccccc4)cc3)CC2)cc1` here?
**A.** active: 5.8 µM

**Q.** Which Potency does the source give for `COc1cccc(COC(=O)CCNC(=O)c2ccc(Br)cc2)c1OC` here?
**A.** inactive

**Q.** With `Cn1cc(C(C[N+](=O)[O-])c2ccccc2)c2ccccc21` (stereo not drawn) as the compound, how does the Potency read?
**A.** inconclusive: 5.17 µM [inhibitor, full curve]

**Q.** Which Potency does the source give for `Cc1cccc(-c2c3c(=O)n(C)c(=O)n(C)c3cn2C2CCCCC2)c1` here?
**A.** inconclusive: 2.82 µM [inhibitor, single point]

**Q.** Which Potency does the source give for `C#CCOCCOCCOCCNc1nc(N2CCOCC2)nc(N2CCN(C(=O)CCCCCCCCCCNC(=O)[C@@H](CCC(=O)O)n3cc(CCCCCN)nn3)CC2)n1` here?
**A.** inactive

**Q.** For `Cc1cc(=O)oc2cc(Oc3ccc([N+](=O)[O-])cc3[N+](=O)[O-])ccc12`, which Potency is on record?
**A.** inconclusive: 23.1 µM [activator, single point]

**Q.** With `COc1cc2c(cc1OC)C(C)N(C(=O)c1cc3c(s1)-c1ccccc1OC3)CC2` (stereo not drawn) as the compound, how does the Potency read?
**A.** inconclusive: 25.9 µM [inhibitor, single point]

**Q.** With `N#Cc1cnn(-c2ccccc2)c1N` as the compound, how does the Potency read?
**A.** inactive

**Q.** For `C[C@H](CO)N1C[C@H](C)[C@@H](CN(C)Cc2ccccc2)Oc2ccc(NC(=O)CCCCCC(=O)Nc3ccccc3N)cc2C1=O`, which Potency is on record?
**A.** inconclusive: 20.6 µM [activator, partial curve, poor fit]

**Q.** For `O=C(Nc1ccc2oc(=O)ccc2c1)c1cc([N+](=O)[O-])ccc1N1CCOCC1`, which Potency is on record?
**A.** inconclusive: 13 µM [activator, partial curve]

**Q.** With `Cc1cc(O)c(C2=Nc3ccccc3SC(c3ccc(Cl)cc3)C2)c(=O)o1` (stereo not drawn) as the compound, how does the Potency read?
**A.** inconclusive: 8.2 µM [activator, partial curve]

**Q.** Which Potency does the source give for `Cc1cc(Br)ccc1NC(=O)CN(C)C(=O)C1=COCCO1` here?
**A.** inactive

**Q.** Which Potency does the source give for `C=C(C)COc1ccc2c(C)c(CC(=O)OC)c(=O)oc2c1C` here?
**A.** inconclusive: 4.61 µM [activator, partial curve]

**Q.** Which Potency does the source give for `COc1ccc(NC(=O)COC(=O)C2CC(=O)N(CCc3ccc(OC)c(OC)c3)C2)cc1Cl` (stereo not drawn) here?
**A.** inactive

**Q.** With `CC(=O)c1ccc(S(=O)(=O)N2CCN(C(=O)c3ccc(-n4cncn4)c([N+](=O)[O-])c3)CC2)cc1` as the compound, how does the Potency read?
**A.** inactive

**Q.** With `O=C(Nc1ccc(N2CCN(C(=O)c3ccccc3)CC2)cc1)c1ccc2c(c1)OCCO2` as the compound, how does the Potency read?
**A.** active: 14.6 µM

**Q.** For `Nc1ccc(N2CCN(c3cccc(Cl)c3)CC2)cc1`, which Potency is on record?
**A.** inconclusive: 7.31 µM [inhibitor, partial curve, poor fit]

**Q.** Which Potency does the source give for `CCOC(=O)N1CCN(C(=O)CCSc2ccccc2)CC1` here?
**A.** inconclusive: 2.59 µM [activator, partial curve]

**Q.** For `Cc1cccc(NC(=O)Nc2cccc(C)n2)n1`, which Potency is on record?
**A.** inconclusive: 9.2 µM [activator, partial curve]

**Q.** With `O=C(CSc1ccccc1F)Nc1ccc(N2CCOCC2)cc1` as the compound, how does the Potency read?
**A.** inconclusive: 23.1 µM [activator, partial curve]

**Q.** For `CCO[C@@H]1OC(C(=O)N2CCN(Cc3ccccc3)CC2)=C[C@H](c2coc3ccccc3c2=O)[C@H]1CCCO`, which Potency is on record?
**A.** inactive
